Laboratory results published in article PMC5704379.
No constants are given. Whether binding was seen depends on the method and setting. In cells and extracts the contact can be indirect. Binding can be weak; no strength is given.

How the values were obtained:
Assay in all cases: co-IP; 293 cells cotransfected with myc-tagged full-length Sertad1 or single domains and pcDNA3.1-iASPP; lysates precipitated with anti-myc, blotted with anti-iASPP
[1] = target: Sertad1 PHD-Bromo domain with myc tag
[2] = target: Sertad1 Cyclin-A domain with myc tag
[3] = target: Sertad1 C terminal domain with myc tag

Measured: binding

B1: iASPP (pcDNA3.1-iASPP) (protein, UniProt Q8WUF5 1-828)
chain: MDSEAFQSARDFLDMNFQSLAMKHMDLKQMELDTAAAKVDELTKQLESLWSDSPAPPGPQAGPPSRPPRYSSSSIPEPFGSRGSPRKAATDGADTPFGRSESAPTLHPYSPLSPKGRPSSPRTPLYLQPDAYGSLDRATSPRPRAFDGAGSSLGRAPSPRPGPGPLRQQGPPTPFDFLGRAGSPRGSPLAEGPQAFFPERGPSPRPPATAYDAPASAFGSSLLGSGGSAFAPPLRAQDDLTLRRRPPKAWNESDLDVAYEKKPSQTASYERLDVFARPASPSLQLLPWRESSLDGLGGTGKDNLTSATLPRNYKVSPLASDRRSDAGSYRRSLGSAGPSGTLPRSWQPVSRIPMPPSSPQPRGAPRQRPIPLSMIFKLQNAFWEHGASRAMLPGSPLFTRAPPPKLQPQPQPQPQPQSQPQPQLPPQPQTQPQTPTPAPQHPQQTWPPVNEGPPKPPTELEPEPEIEGLLTPVLEAGDVDEGPVARPLSPTRLQPALPPEAQSVPELEEVARVLAEIPRPLKRRGSMEQAPAVALPPTHKKQYQQIISRLFHRHGGPGPGGPEPELSPITEGSEARAGPPAPAPPAPIPPPAPSQSSPPEQPQSMEMRSVLRKAGSPRKARRARLNPLVLLLDAALTGELEVVQQAVKEMNDPSQPNEEGITALHNAICGANYSIVDFLITAGANVNSPDSHGWTPLHCAASCNDTVICMALVQHGAAIFATTLSDGATAFEKCDPYREGYADCATYLADVEQSMGLMNSGAVYALWDYSAEFGDELSFREGESVTVLRRDGPEETDWWWAALHGQEGYVPRNYFGLFPRVKPQRSKV
binds: all assays above
